# Source: paper PMC3762901, “Cyclic Peptide Inhibitors of the β-Sliding Clamp in Staphylococcus aureus” (PLoS ONE, 2013)
# Results are given in words; binding and its absence hold for the method and conditions named. Some binding calls cover weakened binding; strength is not graded here.
# T1: DnaA of S. aureus (S. aureus) (UniProt Q2G2H5)
# T1 sequence: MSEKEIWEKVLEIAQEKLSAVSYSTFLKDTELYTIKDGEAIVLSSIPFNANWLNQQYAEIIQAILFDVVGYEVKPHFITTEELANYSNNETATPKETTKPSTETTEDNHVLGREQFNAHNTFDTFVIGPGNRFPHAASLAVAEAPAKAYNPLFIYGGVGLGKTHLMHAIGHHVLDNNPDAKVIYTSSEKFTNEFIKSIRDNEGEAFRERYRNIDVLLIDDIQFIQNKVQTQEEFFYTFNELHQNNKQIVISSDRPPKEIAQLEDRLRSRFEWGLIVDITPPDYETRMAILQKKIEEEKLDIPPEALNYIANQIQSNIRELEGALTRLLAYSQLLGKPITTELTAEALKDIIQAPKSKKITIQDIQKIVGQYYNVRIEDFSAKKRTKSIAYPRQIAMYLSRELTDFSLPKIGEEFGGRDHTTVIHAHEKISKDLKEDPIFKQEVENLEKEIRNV
# T2: DnaB of S. aureus (S. aureus) (UniProt Q2FXP4)
# T2 sequence: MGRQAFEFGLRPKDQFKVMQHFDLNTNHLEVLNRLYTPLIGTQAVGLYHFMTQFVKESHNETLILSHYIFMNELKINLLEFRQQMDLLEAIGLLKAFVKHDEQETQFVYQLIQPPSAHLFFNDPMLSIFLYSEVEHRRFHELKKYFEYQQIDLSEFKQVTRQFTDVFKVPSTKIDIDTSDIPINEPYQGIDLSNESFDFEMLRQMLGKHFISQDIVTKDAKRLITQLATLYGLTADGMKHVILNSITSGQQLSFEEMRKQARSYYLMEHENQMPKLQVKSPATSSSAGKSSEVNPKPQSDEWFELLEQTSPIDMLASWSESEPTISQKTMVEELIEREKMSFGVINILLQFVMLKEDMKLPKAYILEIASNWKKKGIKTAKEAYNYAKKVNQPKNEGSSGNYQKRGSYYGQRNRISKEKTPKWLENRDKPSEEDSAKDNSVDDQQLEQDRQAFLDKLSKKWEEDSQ
# Tests used:
# [1] = target: T1, DnaA of S. aureus (S. aureus); experiment: two-hybrid; bacterial two-hybrid (BTH): T18 and T25 fusions (pUT18 and p25N derivatives) in E. coli BTH101; colour of colonies on plates with 40 μg/ml X-gal
# [2] = target: HolB (δ`) of S. aureus (S. aureus); experiment: as above
# [3] = target: T2, DnaB of S. aureus (S. aureus); experiment: two-hybrid; reverse bacterial two-hybrid (R-BTH) in E. coli SC01 (pyrF behind the lac promoter); growth on LB plates with 1.3 μg/ml 5-FOA, 2 days at 30°C; no growth means interaction
# [4] = target: T2, DnaB of S. aureus (S. aureus); experiment: two-hybrid; bacterial two-hybrid (BTH): T18 and T25 fusions (pUT18 and p25N derivatives) in E. coli BTH101; colour of colonies on plates with 40 μg/ml X-gal
binding [1],binding [2],binding [3],binding [4],Binder
binds weakly,no binding,,,"DnaA of S. aureus (protein, UniProt Q2G2H5 1-453) MSEKEIWEKVLEIAQEKLSAVSYSTFLKDTELYTIKDGEAIVLSSIPFNANWLNQQYAEIIQAILFDVVGYEVKPHFITTEELANYSNNETATPKETTKPSTETTEDNHVLGREQFNAHNTFDTFVIGPGNRFPHAASLAVAEAPAKAYNPLFIYGGVGLGKTHLMHAIGHHVLDNNPDAKVIYTSSEKFTNEFIKSIRDNEGEAFRERYRNIDVLLIDDIQFIQNKVQTQEEFFYTFNELHQNNKQIVISSDRPPKEIAQLEDRLRSRFEWGLIVDITPPDYETRMAILQKKIEEEKLDIPPEALNYIANQIQSNIRELEGALTRLLAYSQLLGKPITTELTAEALKDIIQAPKSKKITIQDIQKIVGQYYNVRIEDFSAKKRTKSIAYPRQIAMYLSRELTDFSLPKIGEEFGGRDHTTVIHAHEKISKDLKEDPIFKQEVENLEKEIRNV"
no binding,no binding,binds,binds,"DnaB of S. aureus (protein, UniProt Q2FXP4 1-466) MGRQAFEFGLRPKDQFKVMQHFDLNTNHLEVLNRLYTPLIGTQAVGLYHFMTQFVKESHNETLILSHYIFMNELKINLLEFRQQMDLLEAIGLLKAFVKHDEQETQFVYQLIQPPSAHLFFNDPMLSIFLYSEVEHRRFHELKKYFEYQQIDLSEFKQVTRQFTDVFKVPSTKIDIDTSDIPINEPYQGIDLSNESFDFEMLRQMLGKHFISQDIVTKDAKRLITQLATLYGLTADGMKHVILNSITSGQQLSFEEMRKQARSYYLMEHENQMPKLQVKSPATSSSAGKSSEVNPKPQSDEWFELLEQTSPIDMLASWSESEPTISQKTMVEELIEREKMSFGVINILLQFVMLKEDMKLPKAYILEIASNWKKKGIKTAKEAYNYAKKVNQPKNEGSSGNYQKRGSYYGQRNRISKEKTPKWLENRDKPSEEDSAKDNSVDDQQLEQDRQAFLDKLSKKWEEDSQ"
